# Test results published in PubChem BioAssay AID1671190 (National Center for Advancing Translational Sciences (NCATS), 2021).
# Sequences of proteins named here, by UniProt entry; tags and fusion partners are left off.
# UniProt P18054, whole entry, looked up: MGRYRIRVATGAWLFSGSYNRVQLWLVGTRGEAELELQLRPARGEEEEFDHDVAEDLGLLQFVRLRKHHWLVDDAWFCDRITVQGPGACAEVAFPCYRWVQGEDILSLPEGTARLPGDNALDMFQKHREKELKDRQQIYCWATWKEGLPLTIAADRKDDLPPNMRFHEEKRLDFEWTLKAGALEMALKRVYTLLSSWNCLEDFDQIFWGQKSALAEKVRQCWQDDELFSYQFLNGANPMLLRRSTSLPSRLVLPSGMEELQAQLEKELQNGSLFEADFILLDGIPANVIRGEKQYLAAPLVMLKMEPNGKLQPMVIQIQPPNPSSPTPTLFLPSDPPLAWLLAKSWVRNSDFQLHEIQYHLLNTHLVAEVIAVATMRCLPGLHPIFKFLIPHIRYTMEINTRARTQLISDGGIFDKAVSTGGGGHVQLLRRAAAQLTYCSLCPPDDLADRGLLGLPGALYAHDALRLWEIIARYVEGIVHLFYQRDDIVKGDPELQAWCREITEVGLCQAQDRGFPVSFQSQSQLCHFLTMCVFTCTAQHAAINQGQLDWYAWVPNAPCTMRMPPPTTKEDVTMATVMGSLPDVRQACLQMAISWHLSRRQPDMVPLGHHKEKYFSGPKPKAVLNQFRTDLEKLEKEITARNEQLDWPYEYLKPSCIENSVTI
# Screen size: about 580,000 compounds; about 6,100 (1.1%) were called active. The inconclusive results got no clear call from the source; some entries with a clear call stand among them for comparison. Calls come from the whole dose curve; as a rule, active = well fitted inhibition curve with a large enough effect; inconclusive = small, poorly fitted or top-dose-only effect, or another doubt; inactive = no such curve, though single readings can be large or run the other way. Potencies of inconclusive entries are doubtful fits and often do not repeat.
# Target: Polyunsaturated fatty acid lipoxygenase ALOX12 (Homo sapiens) (UniProt P18054)
# Test: Primary qHTS assay for inhibitors of human arachidonate 12S-lipoxygenase (ALOX12): Round 2
# Conditions: purified 12hLO, xylenol orange hydroperoxide absorbance; activity change, negative = inhibition: at 108 µM (top of the series) unless noted
# Summary of the method: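 Purified human 12hLO (150 nM final) in 25 mM Hepes, 0.01% Triton X-100, pH 7.0 was preincubated 15 min at room temperature with compound. Then 40 uM arachidonic acid was added, 30 min. Hydroperoxide was read by Fe-XO absorbance ratio 573/405 nm.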
# % is set by controls: 0 for no effect and ±100 for the full control effect; potency is the fitted concentration of half-maximal effect.
SMILES,Potency,"activity change, negative = inhibition"
CC1=C(C(=O)N(C(C)C)C(C)C)CC(CC(=O)NCCCN(C)C)C(=O)N1CCCN1CCCC1=O (stereo unspecified),"inconclusive: 4.47 µM [inhibitor, full curve, poor fit]",
CC(C)c1ccc(C(=O)COC(=O)c2ccc(S(=O)(=O)NCc3ccco3)cc2)cc1,"inconclusive: 39.8 µM [inhibitor, partial curve, poor fit]",
COc1ccc(C=CC(=O)c2ccc(OC)c(OC)c2)cc1O,"inconclusive: 44.7 µM [inhibitor, partial curve, poor fit]",
COCCOc1ccc2c(n1)CCN(C(=O)NCCC(C)C)C2,inactive,
Cc1nnc2sc(-c3ccc(CNC(=O)C(C)(C)Oc4ccc(Br)cc4)cc3)nn12,inactive,
CCN1CCN(CCNC(=O)c2ccc(/C=C3\Sc4ccccc4N(Cc4ccccc4F)C3=O)cc2)CC1,"inconclusive: 89.1 µM [inhibitor, partial curve, poor fit]",
COc1ccc2[nH]cc(CCNC(=O)c3cc(F)ccc3F)c2c1,inactive,
O=C(O)c1cccc(NC(=S)NC(=O)c2ccc(-c3ccccc3)cc2)c1,"inconclusive: 50.1 µM [inhibitor, partial curve, poor fit]",
O=C1NC(C(=O)O)=CC(c2ccc(F)cc2F)N1 (stereo unspecified),"inconclusive: 0.0794 µM [inhibitor, full curve, poor fit]",
COC(=O)c1cc(CSC(=N)N)ccc1OCCC(C)C,"inconclusive: 89.1 µM [inhibitor, single point]",
CSc1ccccc1NC(=O)CN(C)C(=O)COc1cccc2cccnc12,inactive,
CCOC(=O)c1sc(NC(=O)c2cc(-c3ccccc3)nc3ccccc23)c(C#N)c1C,inactive,
O=C(NCCc1ccc(Cl)cc1)C1CCc2nnc(C3CCN([S+](=O)([O-])c4ccccc4)CC3)n21 (stereo unspecified),,inactive: -14.9% [at 6.33 µM]
Cc1nc(-c2c3n(c(=O)n(Cc4ccccc4C(F)(F)F)c2=O)CCCCC3)no1,"inconclusive: 15.8 µM [inhibitor, full curve]",
COc1cc(-c2nc(Cn3nnc(C(=O)Nc4ccccc4)c3C)c(C)o2)cc(OC)c1OC,inactive,
CC12CC(NC(=O)N1c1cccc(C(=O)NCc3ccc4c(c3)OCO4)c1)c1cc(Cl)ccc1O2 (stereo unspecified),"inconclusive: 28.2 µM [inhibitor, partial curve, poor fit]",
CCN(CC)S(=O)(=O)c1ccc2c(c1)nc(SCC(=O)Nc1ccc(F)cc1)n2CC,inactive,
CC1=C(/C=C/C(C)=C/C=C/C(C)=C/C(=O)O)C(C)(C)CCC1O (stereo unspecified),"inconclusive: 141 µM [inhibitor, single point]",
COc1ccc(Br)cc1CN1CCN(c2ncccn2)CC1,"inconclusive: 2 µM [inhibitor, full curve, poor fit]",
Cn1c(CSCc2ccc(Cl)cc2)n[nH]c1=S,"inconclusive: 50.1 µM [inhibitor, single point]",
O=C(Nc1cccc(S(=O)(=O)C(F)F)c1)c1ccc(S(=O)(=O)N2CCCC2)cc1,inactive,

SMILES,Potency,"activity change, negative = inhibition"
CCOC(=O)N1CCN(C(=O)c2ccc3c(c2)N(CC)CCS3)CC1,"inconclusive: 100 µM [inhibitor, single point]",
CCC(C)(C)C(=O)Nc1cc([N+](=O)[O-])ccc1Cl,inactive,
CC1=C(C(=O)N(C(C)C)C(C)C)CC(CC(=O)NCCCCc2ccccc2)C(=O)N1CCC1=CCCCC1 (stereo unspecified),"inconclusive: 6.31 µM [inhibitor, partial curve, poor fit]",
Cc1ccccc1/C=N/Nc1ccnc2cc(Cl)ccc12,"inconclusive: 89.1 µM [inhibitor, single point]",
Brc1cc2[nH]cnc2c2ccccc12,"inconclusive: 112 µM [inhibitor, single point]",
Cc1ccc(C(C)C)cc1OCCN1CCCC1,"inconclusive: 0.199 µM [inhibitor, full curve, poor fit]",
CCN(C(=O)Cn1nc(-c2ccc(C)c(C)c2)ccc1=O)c1cccc(C)c1,"inconclusive: 100 µM [inhibitor, partial curve, poor fit]",
COc1cc(O)c2c(c1)OC(c1ccc(O)cc1)CC2=O (stereo unspecified),"inconclusive: 35.5 µM [inhibitor, partial curve, poor fit]",
Cc1ccc(S(=O)(=O)N2[C@@H](c3ccc(F)cc3)C(C(=O)O)=C[C@H]2CC2CCCC2)cc1,"inconclusive: 50.1 µM [inhibitor, partial curve, poor fit]",
CN1CCc2nc(SC(C(=O)O)c3ccccc3)c(C#N)c(-c3cccs3)c2C1 (stereo unspecified),"inconclusive: 39.8 µM [inhibitor, partial curve, poor fit]",
COc1ccc2oc(=O)c(-c3csc(-c4ccc(Br)cc4)n3)cc2c1,"inconclusive: 100 µM [inhibitor, partial curve, poor fit]",
CC1CN(CCCCOc2ccc(C(C)C)cc2)CC(C)O1 (stereo unspecified),"inconclusive: 0.562 µM [inhibitor, full curve, poor fit]",
COc1ccc(C(=O)NNC(=O)C(=O)N2CCCCC2)cc1OC,"inconclusive: 3.55 µM [inhibitor, single point]",
CCOc1ccc(Nc2nc(N3CCCCC3)nc(N3CCCCC3)n2)cc1,inactive,
Cc1ccc(C(=O)N2C[C@@H](Oc3ccccc3)C[C@H]2C(=O)N2CCOCC2)s1,inactive,
O=C(Nc1nc2ccc(S(=O)(=O)N3CCCC3)cc2s1)c1ccccn1,"inconclusive: 50.1 µM [inhibitor, partial curve, poor fit]",
CCC(c1nnnn1CS(=O)(=O)c1ccc(C)cc1)N1CCC(C(N)=O)CC1 (stereo unspecified),"inconclusive: 44.7 µM [inhibitor, partial curve]",
COc1cc(OC)c(NC(=O)Cn2ccn3nc4c(c3c2=O)CCCC4)cc1Cl,"inconclusive: 63.1 µM [inhibitor, single point]",
CCCc1nc2c(s1)CCc1onc(-c3ccc(OC)cc3)c1-2,"inconclusive: 44.7 µM [inhibitor, partial curve, poor fit]",
CCN(CC)c1ccc(NC(=O)c2ccc3ccccc3n2)cc1,"inconclusive: 50.1 µM [inhibitor, partial curve, poor fit]",

# Filtered by structure: those above containing a cyano group
SMILES,Potency,"activity change, negative = inhibition"
CCOC(=O)c1sc(NC(=O)c2cc(-c3ccccc3)nc3ccccc23)c(C#N)c1C,inactive,
CN1CCc2nc(SC(C(=O)O)c3ccccc3)c(C#N)c(-c3cccs3)c2C1 (stereo unspecified),"inconclusive: 39.8 µM [inhibitor, partial curve, poor fit]",
